The chains behind the UniProt entries cited, without tags or fusion partners.
UniProt P06733: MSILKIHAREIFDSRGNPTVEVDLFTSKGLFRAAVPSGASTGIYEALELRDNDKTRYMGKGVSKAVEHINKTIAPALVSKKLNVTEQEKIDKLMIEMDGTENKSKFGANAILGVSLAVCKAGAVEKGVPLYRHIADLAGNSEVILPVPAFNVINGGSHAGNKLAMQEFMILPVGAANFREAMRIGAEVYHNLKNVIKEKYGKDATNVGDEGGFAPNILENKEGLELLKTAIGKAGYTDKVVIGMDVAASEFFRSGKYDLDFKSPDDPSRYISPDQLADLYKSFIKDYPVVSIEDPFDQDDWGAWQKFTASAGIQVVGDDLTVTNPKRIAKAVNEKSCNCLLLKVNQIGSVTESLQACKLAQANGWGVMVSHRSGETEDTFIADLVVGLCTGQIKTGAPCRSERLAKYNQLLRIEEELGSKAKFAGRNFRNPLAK

In paper PMC12307642:

Target: T1, Flag-tagged circUBE2G1-99aa (human) (UniProt P62253)
T1 sequence: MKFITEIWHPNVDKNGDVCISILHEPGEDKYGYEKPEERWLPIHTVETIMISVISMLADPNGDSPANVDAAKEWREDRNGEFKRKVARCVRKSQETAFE
Experiment: affinity purification with mass spectrometry; Flag immunoprecipitation (against IgG) from HGC-27 cells transfected with circUBE2G1-99aa plasmid; SDS-PAGE, bands excised, LC-MS/MS

binding: binds
Substance: enolase 1 (ENO1) (from UniProt P06733 1-434) (enzyme)

No constants are given. Whether binding was seen depends on the method and setting. Binding seen in cells or lysates may run through a third protein. Here binding means that the protein was enriched with, or labelled near, the bait; the list need not be complete. Tags and fused reporters may be left off the sequences shown.
